Consider one molecule from article doi:10.1101/2025.10.26.684598.

These are yes or no findings as the source states them, for the method shown. In cells and extracts the contact can be indirect. A yes stands for co-enrichment or nearness to the bait. Other partners may have been found.

This test addresses T1, YokF of BSB1 expressed in B. subtilis PY79 (sacA::yokF_(BSB1)) (B. subtilis) (UniProt O32001).
T1 sequence: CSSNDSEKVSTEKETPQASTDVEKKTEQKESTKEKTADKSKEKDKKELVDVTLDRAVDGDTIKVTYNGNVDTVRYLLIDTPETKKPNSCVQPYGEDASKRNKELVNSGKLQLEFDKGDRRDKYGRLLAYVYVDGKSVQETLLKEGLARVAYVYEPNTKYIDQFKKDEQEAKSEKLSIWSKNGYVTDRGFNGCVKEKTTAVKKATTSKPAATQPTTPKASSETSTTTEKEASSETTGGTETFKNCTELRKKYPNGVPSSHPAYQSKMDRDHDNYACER
As to the kind of experiment: affinity purification with mass spectrometry.

B1: FlhA (endogenous, B. subtilis PY79) (protein, UniProt P35620 1-677)
chain: MSTRDLSVLISVVLIVAMLVIPFPPWLLSILIIINISLALIVLLTTMNMQEALQFSIFPSLLLLLTLFRLGLNVSTTRSILSHGEGGKVVETFGNFVVGGNVLVGLVVFIILIIIQFIVITKGAERVSEVAARFTLDAMPGKQMSIDADLNAGMITEQEAKHRREKVAREADFYGAMDGASKFVKGDAIAGIIIVMINIIFGIVIGMLQQGMSIQEAASHFTMLTVGDGIVSQIPALLISTATGIVVTRAASEGNLGHDITGQLFAYPKLLYVAAATIMLLGIFTPIGILLTGPLAGLLAFGAYTLSKSGKEKEEVDEILEEEAEVDELKSPESVVQLLHIDPIEFEFGYGLIPLADANQGGDLLDRIVMIRRQLALELGLVIPVVRIRDNIALQPNEYRLKIKGNEVAKGELLLDHYLAMSPTPEDDLIEGIETVEPSFGLPAKWISEAVKDEADMLGYTVVDPASVVSTHITEKIKQHAHELIGRQETKQLIDHLKESYPVLVEEVTPNPLSVGDIQKVLAKLLKEKVSIRNLVTIFETLADYGKLTTDSDLLTEYTRQALAKQITAQFAKENEVLKVVTCSGRVEKAIADGVQQTEHGNYLSLEPDISESIVRSVAKEAEQLSLRQETAILLCSPPVRMYVKQLLERYFPDLPVLSYNELEANVEVQSIGVVDI
In the case of B1, the binding result was “binds”.
